Source: ChEMBL document CHEMBL3988442, “University of Dundee, Small-Polar-MMV Screening Library” (2021).

Chains of the proteins cited; added tags and fusions are not shown. Residues count along the entry.
UniProt P9WFT3, whole entry: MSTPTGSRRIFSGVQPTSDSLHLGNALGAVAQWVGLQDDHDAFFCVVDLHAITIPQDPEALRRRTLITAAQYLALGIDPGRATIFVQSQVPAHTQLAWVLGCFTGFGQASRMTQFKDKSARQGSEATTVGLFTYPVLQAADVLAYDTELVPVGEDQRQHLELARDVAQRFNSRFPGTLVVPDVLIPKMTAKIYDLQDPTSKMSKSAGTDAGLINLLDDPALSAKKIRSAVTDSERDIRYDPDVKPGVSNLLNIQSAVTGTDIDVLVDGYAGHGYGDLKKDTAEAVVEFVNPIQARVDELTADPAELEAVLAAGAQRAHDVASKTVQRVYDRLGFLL
UniProt P9WPC5, whole entry: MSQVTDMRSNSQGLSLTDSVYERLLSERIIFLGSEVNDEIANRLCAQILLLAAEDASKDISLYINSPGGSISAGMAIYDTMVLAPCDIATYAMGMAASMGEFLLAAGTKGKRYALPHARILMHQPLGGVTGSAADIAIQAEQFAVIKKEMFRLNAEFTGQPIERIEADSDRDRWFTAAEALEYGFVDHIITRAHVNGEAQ
UniProt P9WPC3, whole entry partner: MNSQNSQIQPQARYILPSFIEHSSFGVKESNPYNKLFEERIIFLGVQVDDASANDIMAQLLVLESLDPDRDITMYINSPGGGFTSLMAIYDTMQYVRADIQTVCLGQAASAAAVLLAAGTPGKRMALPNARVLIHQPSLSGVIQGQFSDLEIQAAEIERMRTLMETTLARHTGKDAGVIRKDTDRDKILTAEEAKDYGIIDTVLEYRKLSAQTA
UniProt Q4DA54, 1-478: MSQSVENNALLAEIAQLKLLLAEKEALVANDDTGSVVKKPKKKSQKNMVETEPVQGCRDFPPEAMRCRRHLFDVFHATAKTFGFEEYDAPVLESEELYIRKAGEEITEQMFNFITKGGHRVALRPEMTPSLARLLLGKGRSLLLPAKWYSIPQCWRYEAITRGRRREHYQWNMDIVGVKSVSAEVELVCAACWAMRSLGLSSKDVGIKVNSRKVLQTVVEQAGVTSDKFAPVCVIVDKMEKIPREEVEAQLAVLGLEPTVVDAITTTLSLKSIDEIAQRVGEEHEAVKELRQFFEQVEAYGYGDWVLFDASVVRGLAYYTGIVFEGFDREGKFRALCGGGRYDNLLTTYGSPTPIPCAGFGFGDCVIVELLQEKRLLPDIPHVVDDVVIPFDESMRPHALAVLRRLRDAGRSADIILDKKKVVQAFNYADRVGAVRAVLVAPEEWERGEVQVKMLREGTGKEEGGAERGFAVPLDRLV

MtTrpRS: 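Tryptophan-tRNA ligase, Mycobacterium tuberculosis (UniProt P9WFT3). Enzyme assay of tryptophanyl-tRNA synthetase; the read-out is not stated. Concentration: 10 µM. Direction is not recorded; retested compounds ran higher, which suggests that high means inhibition. Of about 65,000 compounds tested this way, about 64 (0.098%) reached 50% or more in at least one test.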
ClpP1P2: 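Protease assay of ClpP1P2, read by the AMC dye that it sets free. Target: ClpP1P2, Mycobacterium tuberculosis (UniProt P9WPC5 and UniProt P9WPC3). Concentration: 50 µM. Higher reads as stronger inhibition, judged from the few compounds that gave an IC50. Most other retested compounds had strongly negative values. About 69,000 compounds were tested under these conditions; 0.015% (about 10) showed 50% or more at least once.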
TcHisRS: 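Histidine-tRNA ligase, Trypanosoma cruzi CL Brener (UniProt Q4DA54). Enzyme assay of histidyl-tRNA synthetase; the read-out is not stated. Tested at 30 µM. Higher reads as stronger inhibition (inferred: compounds with an IC50 in retests scored well above the rest). About 69,000 compounds were tested under these conditions; 0.045% (about 31) showed 50% or more at least once.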

Values are the deposited “Percent Effect”, in %. How 0% and 100% were set is not recorded. Most values in the screen are low, and negative values occur. Compounds were drawn at random from those tested, without regard to their results.

structure: CCCn1nccc1-c1cc(C2CCN(S(C)(=O)=O)CC2)nc(C)n1
MtTrpRS: -6.118%
ClpP1P2: -21.79%
TcHisRS: 4.563%

structure: CC(=O)N1Cc2ccccc2CC1C(=O)Nc1ccc(C)cn1 (stereo not drawn)
MtTrpRS: 0.1698%
ClpP1P2: 7.012%
TcHisRS: 10.39%

structure: c1cncc(NCCNC2CCCNC2)c1 (stereo not drawn)
MtTrpRS: 0.2329%
ClpP1P2: -8.065%
TcHisRS: 5.155%

structure: COc1cc(C#N)ccc1OCC(=O)NS(=O)(=O)c1ccccc1
MtTrpRS: -5.059%
ClpP1P2: -14.9%
TcHisRS: 3.097%

structure: O=C(CCc1cn[nH]c1)N1C[C@H](CO)C[C@H](CN2CCOCC2)C1
MtTrpRS: -5.131%
ClpP1P2: -0.4245%
TcHisRS: 5.759%

structure: O=C(CO[C@@H]1CC[C@H]2[C@H]1OCCN2CC1CCOCC1)N1CCCC1
MtTrpRS: -3.189%
ClpP1P2: -10.88%
TcHisRS: 1.604%

structure: C=C(C)CN1CCOC(Cn2cncn2)C1 (stereo not drawn)
MtTrpRS: -7.424%
ClpP1P2: 6.611%
TcHisRS: 9.827%

structure: Cc1ncccc1NC(=O)[C@H]1C[C@@H]2CCN(Cc3nccs3)C[C@@H]2O1
MtTrpRS: 4.795%
ClpP1P2: -1.863%
TcHisRS: 2.762%

structure: CCC1=NN2C(=N)/C(=C\c3cccn3-c3cccc(Cl)c3)C(=O)N=C2S1
MtTrpRS: 4.919%
ClpP1P2: 15.22%
TcHisRS: -18%

structure: CCOC(=O)CC(C)Nc1nc(C2CCCC2)nc2c1cnn2C (stereo not drawn)
MtTrpRS: 5.774%
ClpP1P2: 0.837%
TcHisRS: 5.202%

structure: CCCc1cc(CNC(=O)Cc2cc(C)no2)on1
MtTrpRS: 0.5128%
ClpP1P2: -6.883%
TcHisRS: 11.11%

structure: COCCN(C)CCN1CC2(CCN(C(=O)C3CCOC3)CC2)OC1=O (stereo not drawn)
MtTrpRS: 1.408%
ClpP1P2: 2.168%
TcHisRS: -2.51%

structure: Cc1noc(C)c1CN1CCC2(CC1)NC(=O)CC2c1cnn(C)c1 (stereo not drawn)
MtTrpRS: -8.245%
ClpP1P2: -12.61%
TcHisRS: 3.81%

structure: CCc1nnc2n1CCN(Cc1ccc(C(=O)N3CCCC3)cc1)C2
MtTrpRS: -4.568%
ClpP1P2: 16.72%
TcHisRS: 1.916%

structure: Cc1cnc(C(=O)N2CC[C@H]3[C@@H]2CCC(=O)N3c2cccnc2)cn1
MtTrpRS: -1.744%
ClpP1P2: 0.8342%
TcHisRS: 13.27%

structure: CN(C)CCNC(=O)c1ccc(OC2CCN(C(=O)CO)CC2)c(Cl)c1
MtTrpRS: 2.551%
ClpP1P2: 7.093%
TcHisRS: -4.651%

structure: O=C(CN1CCCCC1C1OCCO1)Nc1ccc(F)c(F)c1 (stereo not drawn)
MtTrpRS: -1.501%
ClpP1P2: -2.204%
TcHisRS: 1.604%

structure: CNC(=O)c1ccc(NC(=O)NC(C)c2cc(C)oc2C)c(C)c1 (stereo not drawn)
MtTrpRS: -0.7807%
ClpP1P2: 2.092%
TcHisRS: 13.79%

structure: COc1cc(CNC(=O)Nc2nnc(C3CC3)s2)ccc1O
MtTrpRS: 2.642%
ClpP1P2: 8.596%
TcHisRS: 0.5128%

structure: O=C(NCc1ccco1)C1CCCN1Cc1nc(-c2ccco2)no1 (stereo not drawn)
MtTrpRS: -5.151%
ClpP1P2: -5.225%
TcHisRS: 3.448%

structure: CC(C)c1ncc(CN2CCCC2c2[nH]ncc2C(=O)N(C)C)cn1 (stereo not drawn)
MtTrpRS: -7.269%
ClpP1P2: -12.41%
TcHisRS: 4.615%

structure: Cc1ccc2nc(C)cc(NCCNS(=O)(=O)c3cn(C)nc3C)c2c1
MtTrpRS: -5.499%
ClpP1P2: -10.65%
TcHisRS: 3.876%

structure: Cc1nc([C@@H]2C[C@@H]3CCN(C(=O)Cc4cccc(F)c4)C[C@H]3O2)no1
MtTrpRS: 1.918%
ClpP1P2: -2.351%
TcHisRS: 9.091%

structure: CCOCc1nc2c(c(N3CC=CC3)n1)CCN(Cc1ccco1)CC2
MtTrpRS: -0.7229%
ClpP1P2: -6.119%
TcHisRS: 14.85%

structure: Cc1ccc(CNc2cc(C(=O)N3CCOCC3)nc(C)n2)cc1
MtTrpRS: 0.5735%
ClpP1P2: -1.079%
TcHisRS: 0.8772%

structure: O=C(c1ccc(Cl)cc1F)N1CCC(Cn2cc(CO)nn2)CC1
MtTrpRS: -3.266%
ClpP1P2: -10.17%
TcHisRS: 5.941%

structure: O=c1[nH]c2ncccc2n1C1CCCC1
MtTrpRS: -3.717%
ClpP1P2: -10.82%
TcHisRS: 8.333%

structure: CNS(=O)(=O)c1ccc(CNC(=O)N(CC(C)C)C(C)C)cc1
MtTrpRS: 3.213%
ClpP1P2: -1.289%
TcHisRS: 5.521%

structure: COc1ccc(CN2CCc3c(CNC(=O)CC#N)nn(C)c3C2)cc1
MtTrpRS: 1.481%
ClpP1P2: 2.029%
TcHisRS: 4.813%

structure: Cc1cnn(CCNCC(O)c2ccc(S(C)(=O)=O)cc2)c1 (stereo not drawn)
MtTrpRS: -0.7224%
ClpP1P2: -4.27%
TcHisRS: -1.657%

structure: O=C(Cn1cc(-n2cccc2)cn1)NCC(F)(F)F
MtTrpRS: 1.159%
ClpP1P2: -13.41%
TcHisRS: 3.659%

structure: CC(C(=O)NC(C)(C)C)N1CCC(C(=O)Nc2cnccn2)CC1 (stereo not drawn)
MtTrpRS: -2.948%
ClpP1P2: 7.97%
TcHisRS: 2.762%

structure: CN1CCN(Cc2cccc(NCc3cc[nH]n3)c2)CC1
MtTrpRS: -3.753%
ClpP1P2: 0.2145%
TcHisRS: -2.521%

structure: CCCc1cc(C(=O)N2CCC3(CCCNC3=O)C2)cs1 (stereo not drawn)
MtTrpRS: -2.729%
ClpP1P2: -1.926%
TcHisRS: 0%

structure: CC(C)C(O)C1(CNC(=O)Nc2ccc(CN3CCOC3=O)cc2)CC1 (stereo not drawn)
MtTrpRS: -0.09234%
ClpP1P2: 0.5531%
TcHisRS: 0%

structure: COc1ccc(Oc2cncc(C3CCCN3C(C)=O)n2)cc1 (stereo not drawn)
MtTrpRS: -6.94%
ClpP1P2: 14.4%
TcHisRS: 4.865%

The first 2 entries again:

With CCCn1nccc1-c1cc(C2CCN(S(C)(=O)=O)CC2)nc(C)n1 the screen gave MtTrpRS: -6.118%; ClpP1P2: -21.79%; TcHisRS: 4.563%.
With CC(=O)N1Cc2ccccc2CC1C(=O)Nc1ccc(C)cn1 (stereo not drawn) the screen gave MtTrpRS: 0.1698%; ClpP1P2: 7.012%; TcHisRS: 10.39%.